# Test results from PubChem BioAssay AID493014 (National Center for Advancing Translational Sciences (NCATS), 2011).
# This is one part of the list. These are further read-outs of the screen, such as a control signal, another cell line or another target. No call is given for them. Compounds called inactive in the main read-out are mostly missing here. The note in brackets gives the kind of curve behind each potency; many fits are weak.
# Experiment: qHTS Assay to Find Inhibitors of Chronic Active B-Cell Receptor Signaling
# Details: ABC-DLBCL IkBa-CBG/CBR reporter, luminescence ratio (green luciferase fused to IkBa over red control in TMD8 lymphoma cells), 4 h
# Procedure, shortened: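 Cell line TMD8 (human ABC DLBCL), stably expressing tet-inducible CBG68-IkBa fusion and CBR; IMDM/0.5% FBS; cpd up to 46 uM; dox induction, 4 h, 37C/5% CO2; dual luminescence; green/red ratio; MG132 control.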
# [1] = measured here: CBR red luminescence, cell number
# [2] = measured here: IkBa-CBG green luminescence
Compound,AC50 [1],AC50 [2]
Cn1nc(C(F)(F)F)cc1C(=O)Nc1ccc(Cl)cc1,"1.41 µM [rising, partial curve, poor fit]",
Cc1ccccc1NC(=O)c1ccc2c(c1)CCN2S(C)(=O)=O,"35.5 µM [falling, partial curve, poor fit]",
COC(=O)c1c(C)oc(C)c1S(=O)(=O)NCC1CC1,"0.501 µM [rising, full curve, poor fit]",
CCn1nc(C(=O)NNC(=O)c2ccccc2)c2ccccc2c1=O,"29.1 µM [falling, single point]",
O=C(O)C1OC(Oc2cc3oc(-c4ccccc4)cc(=O)c3c(O)c2O)C(O)C(O)C1O (stereo unspecified),,"20.6 µM [rising, partial curve, poor fit]"
CC(=O)NC(c1ccco1)c1cc(Cl)c2ccccc2c1O (stereo unspecified),"25.9 µM [falling, partial curve, poor fit]",
CCOc1ncccc1C(=O)OCc1c(F)cccc1Cl,"6.31 µM [rising, partial curve]",
CCOc1ccc2nc(NC(=O)c3cc([N+](=O)[O-])ccc3N3CCOCC3)sc2c1,"29.1 µM [rising, partial curve, poor fit]",
COc1ccc(Cl)cc1S(=O)(=O)n1ccnc1C(C)C,"29.1 µM [rising, single point]",
C=CCOC(=O)C1=C(C)NC(SC)=C(C#N)C1c1ccc(OCC)cc1 (stereo unspecified),"35.5 µM [falling, partial curve, poor fit]",
COC(=O)/C=C1\NCCNC1=O,"1.12 µM [rising, partial curve]",
COCCn1c(C)cc(O)c(C(c2ccccc2)N2CCCCC2)c1=O (stereo unspecified),"22.4 µM [rising, partial curve, poor fit]",
Cc1cc(=O)[nH]c(SCC(=O)OCc2ccccc2)c1C#N,"2.24 µM [rising, full curve]",
Cc1csc(NC(=O)CSc2nc3[nH]ncc3c(=O)[nH]2)n1,"5.01 µM [falling, partial curve, poor fit]",
COc1ccc(-c2nc(N)nc(N)n2)c(O)c1,"6.51 µM [falling, partial curve]",
CN1CCN(C(c2ccc(Cl)cc2)c2cc(Cl)c3cccnc3c2O)CC1 (stereo unspecified),"12.6 µM [falling, single point]",
Cc1c(C(=O)NCCn2ccc3ccccc32)cccc1[N+](=O)[O-],"28.2 µM [falling, single point]",
CCc1ccccc1NC(=O)C(C#N)Cc1cccnc1 (stereo unspecified),"4.11 µM [falling, single point]",
O=[N+]([O-])c1c(NCCCO)cc(Sc2ccc(Cl)cc2)c2nonc12,"3.66 µM [falling, partial curve, poor fit]",
Cc1cc(C)n(-c2nc3ccccc3c(=O)n2OCC(=O)Nc2c(C)cccc2C)n1,"16.4 µM [rising, single point]",
Cc1c(N=C2NC(=O)C(CC(=O)Nc3ccccc3)S2)c(=O)n(-c2ccccc2)n1C (stereo unspecified),"6.51 µM [rising, partial curve, poor fit]",

# Three entries from above, arranged by heavy-atom count, low to high:
Compound,AC50 [1],AC50 [2]
Cn1nc(C(F)(F)F)cc1C(=O)Nc1ccc(Cl)cc1,"1.41 µM [rising, partial curve, poor fit]",
CN1CCN(C(c2ccc(Cl)cc2)c2cc(Cl)c3cccnc3c2O)CC1 (stereo unspecified),"12.6 µM [falling, single point]",
Cc1c(N=C2NC(=O)C(CC(=O)Nc3ccccc3)S2)c(=O)n(-c2ccccc2)n1C (stereo unspecified),"6.51 µM [rising, partial curve, poor fit]",

# Reformatted bar-delimited: 2 of the compounds above
Compound | AC50 [1] | AC50 [2]
Cc1csc(NC(=O)CSc2nc3[nH]ncc3c(=O)[nH]2)n1 | 5.01 µM [falling, partial curve, poor fit] | 
COc1ccc(-c2nc(N)nc(N)n2)c(O)c1 | 6.51 µM [falling, partial curve] | 

# The list continues:

Compound,AC50 [1],AC50 [2]
O=C(O)/C=C/C(=O)Nc1ccccc1SC(F)(F)C(F)(F)C(F)(F)F,"10 µM [falling, partial curve]",
CN(C)c1cccc(C(=O)Nc2ccc(N3CCOCC3)cc2)c1,"18.4 µM [falling, partial curve, poor fit]",
CC(C)N(C)C1CCN(C(=O)Nc2ccc(Cl)cc2)CC1,"22.4 µM [rising, single point]",
O=C(C(NS(=O)(=O)c1cccc2nsnc12)c1ccccc1)N1CCN(c2ccccc2)CC1 (stereo unspecified),"0.0058 µM [falling, full curve, poor fit]",
CCOC(=O)c1ccccc1NC(=S)N1CCCCC1,"20.6 µM [rising, partial curve, poor fit]",
CCn1cc(C(=O)OCC(=O)c2cc(C)n(-c3ccccc3)c2C)c(=O)c2ccc(C)nc21,"1.3 µM [rising, full curve, poor fit]",
CC(=O)c1c(C)[nH]c(C(=O)NCc2cccc(Cl)c2)c1C,"25.1 µM [rising, partial curve, poor fit]",
Cc1ccc(NC(=O)C(=O)NCc2ccc(/C=N/NC(=O)c3c(C)nc4cc(C)ccn34)o2)cc1,"0.103 µM [falling, full curve, poor fit]",
Cc1ccc(CSc2ncn(-c3ccccc3)n2)cc1,"11.6 µM [rising, partial curve, poor fit]",
CC(C)(C)c1csc(NC(=O)c2ccc3nccnc3c2)n1,"15.8 µM [falling, partial curve, poor fit]",
O=C(COC(=O)c1n[nH]c2ccccc12)NCCc1ccc(Cl)cc1,,"16.4 µM [falling, partial curve, poor fit]"
CSC1=NC(C(Cl)(Cl)Cl)N=C(c2ccc(C)cc2)N1 (stereo unspecified),"4.47 µM [rising, single point]","3.16 µM [falling, single point]"
CC(C)(C)CC(C)(C)NCC(=O)Nc1c2c(nc3ccccc13)CCC2,"11.2 µM [falling, single point]",
COc1ccc(CCNC(=O)c2cc(-c3ccc(C)c(C)c3O)n[nH]2)cc1OC,"16.4 µM [rising, partial curve, poor fit]",
CCCNCCC(c1ccco1)c1ccccc1OC (stereo unspecified),"0.562 µM [rising, partial curve, poor fit]",
CCOC(=O)c1sc2nc3n(c(=O)c2c1C)CCC3,"2.31 µM [rising, full curve, poor fit]",
COc1cc([N+](=O)[O-])ccc1NC(=O)N1CCCCCC1,"35.5 µM [falling, single point]",
COc1ccc(Cl)cc1Nc1nc(N)nc(C(F)(F)F)n1,"11.2 µM [rising, partial curve]",
Cc1ccnc(Nc2nc(-c3ccc(F)cc3)cs2)c1,"12.6 µM [falling, partial curve, poor fit]",
COc1cc2ncnc(NCc3cccc(Cl)c3)c2cc1OC,"35.5 µM [falling, single point]",
COC(=O)c1sc2ccccc2c1-n1cccc1C(=O)C(=O)Nc1ccc(Cl)cc1,"12.6 µM [falling, partial curve, poor fit]",

Compound,AC50 [1],AC50 [2]
Cc1cc(C)n(C(=O)CN2C(=O)CCC2=O)n1,"2.59 µM [rising, partial curve]",
CCCCn1c2ccc(C)cc2c2nnc(SCCN3CCCCC3)nc21,"3.55 µM [falling, single point]",
COc1ccc([N+](=O)[O-])cc1N(CC(O)CN(CC(C)C)CC(C)C)S(=O)(=O)c1ccc(C)cc1 (stereo unspecified),"35.5 µM [falling, single point]",
CC(OC(=O)c1cccc(S(=O)(=O)Nc2cccc(C(F)(F)F)c2)c1)C(=O)Nc1ccc2c(c1)OCCO2 (stereo unspecified),"25.9 µM [falling, single point]","23.1 µM [rising, single point]"
COc1ccccc1OCC#CCSc1ncccn1,"11.2 µM [falling, partial curve, poor fit]",
Cc1nccn1-c1ccc(C(F)(F)F)cc1[N+](=O)[O-],"35.5 µM [rising, single point]",
CCCCNC(=O)c1cccc(NC(=O)C(=O)c2ccccc2NC(C)=O)c1,"20.6 µM [rising, single point]",
O=C(COC(=O)CNC(=O)c1ccc(Br)o1)Nc1ccccc1OC(F)F,"20 µM [rising, partial curve, poor fit]",
CN(C)CCCNC(NC(=O)c1cccs1)C(Cl)(Cl)Cl (stereo unspecified),"20.6 µM [falling, single point]",
CCOc1ccccc1N=NC1C(=O)N(C(N)=S)N=C1C (stereo unspecified),"5.01 µM [rising, partial curve, poor fit]","2.51 µM [falling, partial curve, poor fit]"
CC(=O)Nc1ccc(N2CCN(c3ccc(F)cc3)CC2)cc1,"15.8 µM [rising, partial curve, poor fit]",
COc1ccccc1NC(=O)CSCC(=O)N1c2ccccc2CCc2ccccc21,"29.1 µM [falling, single point]",
NNc1nc2ccc(F)cc2s1,"16.4 µM [falling, partial curve, poor fit]",
CN(c1cccc(NC(=O)CN(c2cccc(Cl)c2)S(=O)(=O)c2ccc(Cl)cc2)c1)S(C)(=O)=O,"2.59 µM [falling, full curve]",
CC(=O)Nc1cccc(OCC(=O)Nc2sccc2C(N)=O)c1,"3.55 µM [rising, single point]",
COc1ccc(-c2cc(C(F)(F)F)nc(S(=O)(=O)CCCC(=O)Nc3cc(C)on3)n2)cc1OC,"11.2 µM [falling, partial curve, poor fit]",
Cc1cc(C(C)(C)C)oc1C(=O)N(CC(=O)NC1CCCC1)Cc1ccccc1Cl,"18.4 µM [falling, single point]",
COc1ccc2nc(NC(=O)Cc3cccs3)sc2c1,"25.9 µM [falling, single point]",
O=C(COc1ccc(Br)cc1CO)Nc1ccccc1F,"12.6 µM [falling, partial curve]",
Cc1cc(C(=O)NNC2CC(=O)N(c3ccc4ccccc4c3)C2=O)c(C)o1 (stereo unspecified),"7.08 µM [falling, full curve, poor fit]",
COc1ccc(Oc2nnc(C)c3ccccc23)cc1,"29.1 µM [rising, single point]",
